From the supplement of paper PMC9454738
Where a name gives a salt, the structure may show the parent alone. ± gives the standard deviation of the averaged measurements. This is one part of the list. Single values are uncertain here, since repeats match poorly.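 Assays used MDA-MB-231 triple-negative breast cancer cells and their brain-metastatic line MDA-MB-231BRM, stably carrying empty vector, full-length GLI1 or truncated tGLI1. After 48 h, viability was read with CellTiter-Blue and normalized to 1% DMSO vehicle. tGLI1 selectivity meant viability fell 20% more in tGLI1 cells than in vector and GLI1 cells.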

Experiments:
Test in all cases: cell viability relative to vehicle (DMSO) control (fraction); higher = more viable cells (less growth inhibition)
Settings in all cases: treatment time 48 h
MDA-MB-231 GLI1 = test system: MDA-MB-231 GLI1
MDA-MB-231 Vector = test system: MDA-MB-231 Vector
MDA-MB-231 tGLI1 = test system: MDA-MB-231 tGLI1
MDA-MB-231BRM GLI1 = test system: MDA-MB-231BRM GLI1
MDA-MB-231BRM Vector = test system: MDA-MB-231BRM Vector
MDA-MB-231BRM tGLI1 = test system: MDA-MB-231BRM tGLI1

Compound | cell viability (MDA-MB-231 GLI1; 0.05 µM) | cell viability (MDA-MB-231 GLI1; 0.5 µM) | cell viability (MDA-MB-231 GLI1; 5 µM) | cell viability (MDA-MB-231 Vector; 0.05 µM) | cell viability (MDA-MB-231 Vector; 0.5 µM) | cell viability (MDA-MB-231 Vector; 5 µM) | cell viability (MDA-MB-231 tGLI1; 0.05 µM) | cell viability (MDA-MB-231 tGLI1; 0.5 µM) | cell viability (MDA-MB-231 tGLI1; 5 µM) | cell viability (MDA-MB-231BRM GLI1; 0.05 µM) | cell viability (MDA-MB-231BRM GLI1; 0.5 µM) | cell viability (MDA-MB-231BRM GLI1; 5 µM) | cell viability (MDA-MB-231BRM Vector; 0.05 µM) | cell viability (MDA-MB-231BRM Vector; 0.5 µM) | cell viability (MDA-MB-231BRM Vector; 5 µM) | cell viability (MDA-MB-231BRM tGLI1; 0.05 µM) | cell viability (MDA-MB-231BRM tGLI1; 0.5 µM) | cell viability (MDA-MB-231BRM tGLI1; 5 µM)
CNCc1ccc(-c2cc(-c3nc(-c4ccc(S(=O)(=O)C(C)C)cc4)cnc3N)on2)cc1 | 0.866 | 0.283 | 0.161 | 1.17 | 0.338 | 0.238 | 1.34 | 0.324 | 0.155 | 1.02 | 1.02 | 0.96 | 1.11 | 1.17 | 1.12 | 1.08 | 1.02 | 0.922
FC(F)c1nc2ccccc2n1-c1nc(N2CCOCC2)nc(N2CCOCC2)n1 | 1.2 | 1.28 | 0.402 | 1.37 | 0.79 | 0.337 | 1.07 | 1.02 | 0.246 | 0.877 | 0.75 | 0.671 | 0.824 | 0.795 | 0.703 | 0.88 | 0.794 | 0.583
O=C(Nc1ccc(OC(F)(F)F)cc1)c1sccc1NCc1ccnc2ccccc12 | 1.22 | 1.28 | 0.79 | 1.79 | 0.924 | 0.628 | 1.14 | 1.21 | 0.39 | 1.13 | 1.07 | 0.939 | 0.579 | 0.962 | 0.943 | 0.936 | 1.08 | 0.818
CN(C)CCCn1cc(C2=C(c3c[nH]c4ccccc34)C(=O)NC2=O)c2ccccc21 | 1.16 | 1.77 | 0.588 | 1.35 | 1.38 | 0.562 | 1.21 | 1.39 | 0.665 | 1.01 | 0.939 | 0.812 | 1.1 | 1.01 | 0.745 | 1.01 | 0.971 | 0.648
Cc1cc([C@@H](C)Nc2ccccc2C(=O)O)c2nc(N3CCOCC3)cc(=O)n2c1 | 1.24 | 1.07 | 1.28 | 1.94 | 1.18 | 1.15 | 1.22 | 1.17 | 1.05 | 1.18 | 1.12 | 0.919 | 1.14 | 1.05 | 0.873 | 0.492 | 0.736 | 0.936
NC(=O)c1ncn([C@@H]2O[C@H](CO)[C@@H](O)[C@H]2O)c1N [Acadesine] | 1.17 ± 0.19 | 1.21 ± 0.13 | 1.33 ± 0.39 | 1.37 ± 0.7 | 1.21 ± 0.025 | 1.33 ± 0.16 | 1.222 ± 0.0056 | 1.25 ± 0.11 | 1.24 ± 0.11 | 1.09 ± 0.16 | 1.1 ± 0.13 | 1.01 ± 0.053 | 1.06 ± 0.065 | 0.866 ± 0.21 | 1.1 ± 0.018 | 0.892 ± 0.09 | 1.13 ± 0.032 | 0.996 ± 0.024
CNC(=O)c1ccccc1Nc1nc(Nc2ccc(N3CCOCC3)cc2OC)ncc1Cl | 1.27 | 0.836 | 0.233 | 1.13 | 0.889 | 0.274 | 1.32 | 0.785 | 0.199 | 0.993 | 0.871 | 0.563 | 0.951 | 0.885 | 0.537 | 0.938 | 0.908 | 0.536
CN1CCN(c2ccc(C(=O)Nc3n[nH]c4ccc(Cc5cc(F)cc(F)c5)cc34)c(NC3CCOCC3)c2)CC1 [Entrectinib (RXDX-101)] | 2.25 | 3.1 | 0.0684 | 1.24 | 1.26 | -0.0838 | 1.4 | 1.33 | -0.137 | 0.811 | 0.714 | 0.621 | 0.914 | 0.734 | 0.653 | 1.16 | 1.07 | 0.81
COc1cc2ncnc(Nc3ccc(F)c(Cl)c3)c2cc1OCCCN1CCOCC1 [Gefitinib (ZD1839)] | 1.36 | 1.71 | 1.46 | 1.39 | 1.24 | 1.06 | 1.12 | 1.41 | 1.04 | 0.906 | 0.892 | 0.696 | 0.889 | 0.968 | 0.792 | 0.942 | 0.85 | 0.739
N#Cc1ccc2[nH]c(O)c(-c3ccc(CN4CCOCC4)cn3)c2c1 | 1.38 | 1.56 | 0.758 | 1.28 | 1.3 | 0.862 | 1.43 | 1.27 | 0.688 | 1.15 | 1.01 | 0.991 | 1.1 | 1.1 | 1 | 1.08 | 0.974 | 0.97
O=C1Nc2ccc(I)cc2/C1=C/c1cc(Br)c(O)c(Br)c1 | 0.91 | 1.14 | 0.631 | 1.07 | 1.25 | 1.06 | 0.995 | 1.21 | 0.921 | 0.993 | 0.906 | 0.886 | 1 | 0.901 | 0.925 | 1.04 | 0.881 | 0.919
Cc1cc2c(F)c(Oc3ncnn4cc(OC[C@@H](C)OC(=O)[C@H](C)N)c(C)c34)ccc2[nH]1 | 1.46 | 1.62 | 0.834 | 1.45 | 1.21 | 0.707 | 1.22 | 1.46 | 0.643 | 0.965 | 1 | 0.975 | 0.979 | 0.923 | 1.07 | 0.977 | 0.919 | 1.03
O=C(NOCC1CC1)c1ccc(F)c(F)c1Nc1ccc(I)cc1Cl | 1.33 | 1.63 | 0.743 | 1.39 | 1.16 | 0.511 | 1.36 | 1.35 | 0.575 | 0.911 | 0.999 | 1.02 | 0.907 | 0.963 | 1.02 | 0.954 | 0.985 | 0.958
COC(=O)Nc1ccc(-c2nc(N3CCOCC3)c3cnn(C4CCN(C(=O)OC)CC4)c3n2)cc1 | 1.1 | 0.495 | 0.285 | 1.58 | 0.521 | 0.293 | 0.478 | 0.487 | 0.254 | 1.07 | 0.836 | 0.345 | 0.54 | 0.779 | 0.585 | 0.915 | 0.743 | 0.598
COc1ccc2[nH]cc(CCNC(C)=O)c2c1 [Melatonin] | 1.04 | 1.06 | 1.12 | 1.03 | 1.01 | 1.14 | 0.99 | 0.988 | 1.05 | 1.07 | 0.972 | 0.975 | 1.01 | 1.05 | 1.01 | 1.11 | 0.988 | 1.07
C=CC(=O)Nc1cccc(Nc2nc(Nc3ccc(Oc4ccnc(C(=O)NC)c4)cc3)ncc2F)c1 | 1.1 | 1.26 | 0.616 | 0.825 | 0.893 | 0.599 | 1.02 | 1.16 | 0.803 | 0.853 | 0.936 | 0.688 | 0.986 | 0.949 | 0.642 | 0.942 | 1.01 | 0.74
Cc1cnc(Nc2ccc(OCCN3CCCC3)cc2)nc1Nc1cccc(S(=O)(=O)NC(C)(C)C)c1 | 1.36 | 0.818 | 0.141 | 1.27 | 1.13 | 0.261 | 1.34 | 1 | 0.0522 | 1.07 | 0.971 | 0.347 | 1 | 0.964 | 0.405 | 1.04 | 1.01 | 0.331
COc1ccc(-c2ccc3c(N4CCOC[C@@H]4C)nc(N4CCOC[C@@H]4C)nc3n2)cc1CO | 0.769 | 0.342 | 0.339 | 1.22 | 0.42 | 0.379 | 0.827 | 0.448 | 0.362 | 0.983 | 0.916 | 0.607 | 1.04 | 0.796 | 0.639 | 0.513 | 0.811 | 0.565
OCCn1cc(-c2cnc3nnn(Cc4ccc5ncccc5c4)c3n2)cn1 | 1.33 | 1.46 | 1 | 1.04 | 1.12 | 0.788 | 1.02 | 1.45 | 1.18 | 0.942 | 0.926 | 0.954 | 0.914 | 1.07 | 0.964 | 0.726 | 0.946 | 1.03
COc1ccc(-c2ccc3c(N4CCOCC4)nc(N4C[C@@H](C)O[C@@H](C)C4)nc3n2)cc1CO | 0.936 | 0.709 | 0.386 | 1.31 | 0.653 | 0.344 | 0.812 | 0.682 | 0.324 | 1.02 | 0.828 | 0.399 | 0.941 | 0.804 | 0.457 | 0.875 | 0.857 | 0.401
COc1cc2/c(=N/c3ccc(Br)cc3F)nc[nH]c2cc1OCC1CCN(C)CC1 [Vandetanib (Zactima)] | 1.18 | 1.05 | 1.12 | 0.851 | 1.23 | 1.14 | 0.926 | 1.09 | 1.07 | 0.977 | 0.957 | 0.941 | 0.96 | 0.94 | 0.945 | 1.02 | 0.995 | 0.963
Cc1cc2c(F)c(Oc3ncnn4cc(OC[C@@H](C)O)c(C)c34)ccc2[nH]1 | 1.52 | 1.81 | 0.97 | 1.43 | 1.27 | 0.685 | 1.22 | 1.54 | 0.709 | 0.926 | 0.933 | 0.982 | 0.939 | 0.925 | 0.964 | 0.947 | 0.964 | 0.991
Cc1ccc(NC(=O)c2ccc(CN3CCN(C)CC3)cc2)cc1Nc1nccc(-c2cccnc2)n1 [Imatinib Mesylate (STI571)] | 1.45 | 1.8 | 1.01 | 1.43 | 1.19 | 0.995 | 1.11 | 1.39 | 1.21 | 0.901 | 0.923 | 0.875 | 0.898 | 0.91 | 0.869 | 0.926 | 0.881 | 0.868
CCCC1O[C@@H]2C[C@H]3[C@@H]4CCC5=CC(=O)C=C[C@]5(C)[C@H]4[C@@H](O)C[C@]3(C)[C@]2(C(=O)CO)O1 (stereo partly specified) [Budesonide] | 1.15 | 1.03 | 1.05 | 1.07 | 1.08 | 0.959 | 1.05 | 0.936 | 0.858 | 1 | 1.1 | 0.953 | 1.01 | 1.01 | 0.981 | 1.05 | 1.05 | 0.987
Cc1cc(CS(=O)(=O)c2ccccc2)cc(OCc2ccc(CN3CCC[C@@H]3CO)cc2)c1 | 1.42 | 1.92 | 1.54 | 1.5 | 1.41 | 1.62 | 1.51 | 1.53 | 1.63 | 1.05 | 0.978 | 0.938 | 1.13 | 1.13 | 0.991 | 0.97 | 0.991 | 0.959
CCN(CC)CCCC(C)Nc1nc(C)cc(Nc2ccc3nc(C)cc(N)c3c2)n1 (stereo unspecified) | 2.45 | 3.04 | 2.04 | 1.41 | 1.28 | 1.22 | 1.36 | 1.44 | 1.29 | 0.759 | 0.753 | 0.574 | 0.925 | 0.708 | 0.651 | 1.14 | 1.02 | 0.987
CC(C)CCN1c2nc(Nc3cc(F)c(O)c(F)c3)ncc2N(C)C(=O)C1C (stereo unspecified) | 1.18 | 0.95 | 0.301 | 1.22 | 1.01 | 0.575 | 1.21 | 1.02 | 0.394 | 0.992 | 0.838 | 0.771 | 0.971 | 0.945 | 0.869 | 1.01 | 0.959 | 0.786

An excerpt from above in order of length of the SMILES, ascending.
Compound | cell viability (MDA-MB-231 GLI1; 0.05 µM) | cell viability (MDA-MB-231 GLI1; 0.5 µM) | cell viability (MDA-MB-231 GLI1; 5 µM) | cell viability (MDA-MB-231 Vector; 0.05 µM) | cell viability (MDA-MB-231 Vector; 0.5 µM) | cell viability (MDA-MB-231 Vector; 5 µM) | cell viability (MDA-MB-231 tGLI1; 0.05 µM) | cell viability (MDA-MB-231 tGLI1; 0.5 µM) | cell viability (MDA-MB-231 tGLI1; 5 µM) | cell viability (MDA-MB-231BRM GLI1; 0.05 µM) | cell viability (MDA-MB-231BRM GLI1; 0.5 µM) | cell viability (MDA-MB-231BRM GLI1; 5 µM) | cell viability (MDA-MB-231BRM Vector; 0.05 µM) | cell viability (MDA-MB-231BRM Vector; 0.5 µM) | cell viability (MDA-MB-231BRM Vector; 5 µM) | cell viability (MDA-MB-231BRM tGLI1; 0.05 µM) | cell viability (MDA-MB-231BRM tGLI1; 0.5 µM) | cell viability (MDA-MB-231BRM tGLI1; 5 µM)
O=C1Nc2ccc(I)cc2/C1=C/c1cc(Br)c(O)c(Br)c1 | 0.91 | 1.14 | 0.631 | 1.07 | 1.25 | 1.06 | 0.995 | 1.21 | 0.921 | 0.993 | 0.906 | 0.886 | 1 | 0.901 | 0.925 | 1.04 | 0.881 | 0.919
O=C(Nc1ccc(OC(F)(F)F)cc1)c1sccc1NCc1ccnc2ccccc12 | 1.22 | 1.28 | 0.79 | 1.79 | 0.924 | 0.628 | 1.14 | 1.21 | 0.39 | 1.13 | 1.07 | 0.939 | 0.579 | 0.962 | 0.943 | 0.936 | 1.08 | 0.818
Cc1ccc(NC(=O)c2ccc(CN3CCN(C)CC3)cc2)cc1Nc1nccc(-c2cccnc2)n1 [Imatinib Mesylate (STI571)] | 1.45 | 1.8 | 1.01 | 1.43 | 1.19 | 0.995 | 1.11 | 1.39 | 1.21 | 0.901 | 0.923 | 0.875 | 0.898 | 0.91 | 0.869 | 0.926 | 0.881 | 0.868
COc1ccc(-c2ccc3c(N4CCOC[C@@H]4C)nc(N4CCOC[C@@H]4C)nc3n2)cc1CO | 0.769 | 0.342 | 0.339 | 1.22 | 0.42 | 0.379 | 0.827 | 0.448 | 0.362 | 0.983 | 0.916 | 0.607 | 1.04 | 0.796 | 0.639 | 0.513 | 0.811 | 0.565
CCCC1O[C@@H]2C[C@H]3[C@@H]4CCC5=CC(=O)C=C[C@]5(C)[C@H]4[C@@H](O)C[C@]3(C)[C@]2(C(=O)CO)O1 (stereo partly specified) [Budesonide] | 1.15 | 1.03 | 1.05 | 1.07 | 1.08 | 0.959 | 1.05 | 0.936 | 0.858 | 1 | 1.1 | 0.953 | 1.01 | 1.01 | 0.981 | 1.05 | 1.05 | 0.987
